The list shows only some results of the screen, not a fair sample: it gathers tests that were run many times, whatever their T/C, doses with no T/C, and many T/C values between a quarter and a half above the control. Other doses and runs of a compound stand elsewhere. T/C gives the treated animals as a percentage of the vehicle group. Some doses have a count of surviving animals in place of a T/C: the source holds a T/C of zero for them, seemingly a mark for toxic or unscored doses. Some survivor counts are full or nearly so, which does not show that the dose was tolerated: the source hardly ever lists a survival T/C far under the control, and the zero likely stands for such cases as well. Survivors were counted at the toxicity check, usually on the fifth day, unless a day is given; later deaths do not show. Schedules are NCI's codes, read here as Q, the interval in days (D) or hours (H), X, the number of doses.
Test system: L1210 leukemia ip in BDF1 mice, survival T/C
Assay: NCI In Vivo Anticancer Drug Screen. Data for tumor model L1210 Leukemia (intraperitoneal) in B6D2F1 (BDF1) mice
Details: T/C endpoint: mean survival time, higher T/C = longer survival

With `[CH3][Ga]([CH3])[O]c1ccccc1C=O` the survivor count (dose: 12.5 mg/kg/injection, schedule: Q04DX003 (ip), vehicle: DMSO) was 2 of 6, the survivor count (dose: 25.0 mg/kg/injection, schedule: Q04DX003 (ip), vehicle: DMSO) was 1 of 6 and the survivor count (dose: 50.0 mg/kg/injection, schedule: Q04DX003 (ip), vehicle: DMSO) was 0 of 6. For the same compound, the survivor count (dose: 100.0 mg/kg/injection, schedule: Q04DX003 (ip), vehicle: DMSO) was 0 of 6, the survivor count (dose: 200.0 mg/kg/injection, schedule: Q04DX003 (ip), vehicle: DMSO) was 0 of 6 and the survivor count (dose: 400.0 mg/kg/injection, schedule: Q04DX003 (ip), vehicle: DMSO) was 0 of 6.

In the case of `O=C(O)c1ccc([N+](=O)[O-])c(P(=O)(O)O)c1`, the survivor count (dose: 300.0 mg/kg/injection, schedule: Q01DX001 (ip), vehicle: saline) is reported as 2 of 6.

`Cc1ccc(Oc2cccc3c[n+](C)ccc23)cc1` was tested, and the survivor count (dose: 100.0 mg/kg/injection, schedule: Q04DX002 (ip), vehicle: DMSO) was 3 of 3, the survivor count (dose: 200.0 mg/kg/injection, schedule: Q04DX002 (ip), vehicle: DMSO) was 3 of 3 and the survivor count (dose: 400.0 mg/kg/injection, schedule: Q04DX002 (ip), vehicle: DMSO) was 0 of 3.

With `CCCCCCCc1c(C)[nH]c2ccccc2c1=O` the survivor count (dose: 200.0 mg/kg/injection, schedule: Q01DX009 (ip), vehicle: Klucel (hydroxypropylcellulose) (HPC)) was 6 of 6 and the survivor count (dose: 400.0 mg/kg/injection, schedule: Q01DX009 (ip), vehicle: Klucel (hydroxypropylcellulose) (HPC)) was 1 of 6.

`O=P(O)(O)OCC(O)CF` (configuration not stated) was tested, and the survivor count (dose: 44.0 mg/kg/injection, schedule: Q01DX009 (ip), vehicle: saline with Tween-80) was 1 of 6, the survivor count (dose: 88.0 mg/kg/injection, schedule: Q01DX009 (ip), vehicle: saline with Tween-80) was 0 of 6 and the survivor count (dose: 175.0 mg/kg/injection, schedule: Q01DX009 (ip), vehicle: saline with Tween-80) was 0 of 6. The survivor count (dose: 175.0 mg/kg/injection, schedule: Q04DX003 (ip), vehicle: saline) was 1 of 6 and the survivor count (dose: 262.5 mg/kg/injection, schedule: Q04DX003 (ip), vehicle: saline) was 0 of 6.
